Only a part is listed here, and it is no random draw. At the low end of the ranking the order means little.
Columns and labels:
Test in all cases: DAPPL (digital affinity profiling via proximity ligation, sequencing)
Details in all cases: 10 mM Tris-HCl pH 7.5, 50 mM NaCl, 1 mM DTT, 4% glycerol, room temperature, 30 min; GST-TFs on glutathione beads, 16-mer random dsDNA library, 0.1% …; high values mean tight binding; double strand, one strand shown; scale: fold enrichment (6-mer frequency, TF over GST control)
ELF3 = biological target: T1, ELF3 (UniProt P78545)
T1 sequence: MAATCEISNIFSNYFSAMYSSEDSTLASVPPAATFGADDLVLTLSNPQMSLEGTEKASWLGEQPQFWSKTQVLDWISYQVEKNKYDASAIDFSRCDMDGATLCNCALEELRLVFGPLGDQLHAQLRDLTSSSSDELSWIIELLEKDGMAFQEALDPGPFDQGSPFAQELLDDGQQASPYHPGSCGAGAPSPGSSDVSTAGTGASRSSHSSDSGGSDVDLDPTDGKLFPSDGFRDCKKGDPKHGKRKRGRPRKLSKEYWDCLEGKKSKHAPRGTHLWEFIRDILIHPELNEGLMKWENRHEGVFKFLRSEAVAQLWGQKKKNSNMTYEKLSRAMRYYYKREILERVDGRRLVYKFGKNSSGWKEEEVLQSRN

By UniProt entry, the sequences of proteins in these tests, tags left out. Where a name states a change or a piece, a line headed by the entry shows the natural chain unless it says otherwise.
UniProt Q9Y603: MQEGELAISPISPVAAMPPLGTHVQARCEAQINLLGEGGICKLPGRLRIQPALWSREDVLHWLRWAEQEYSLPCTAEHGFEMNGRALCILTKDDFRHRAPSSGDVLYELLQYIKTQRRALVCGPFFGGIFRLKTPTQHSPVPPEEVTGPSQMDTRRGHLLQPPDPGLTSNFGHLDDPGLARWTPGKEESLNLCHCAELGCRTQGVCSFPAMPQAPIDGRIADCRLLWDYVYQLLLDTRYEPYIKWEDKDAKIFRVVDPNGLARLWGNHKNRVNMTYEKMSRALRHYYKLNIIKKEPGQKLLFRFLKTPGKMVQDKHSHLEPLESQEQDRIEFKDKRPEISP
UniProt P41212: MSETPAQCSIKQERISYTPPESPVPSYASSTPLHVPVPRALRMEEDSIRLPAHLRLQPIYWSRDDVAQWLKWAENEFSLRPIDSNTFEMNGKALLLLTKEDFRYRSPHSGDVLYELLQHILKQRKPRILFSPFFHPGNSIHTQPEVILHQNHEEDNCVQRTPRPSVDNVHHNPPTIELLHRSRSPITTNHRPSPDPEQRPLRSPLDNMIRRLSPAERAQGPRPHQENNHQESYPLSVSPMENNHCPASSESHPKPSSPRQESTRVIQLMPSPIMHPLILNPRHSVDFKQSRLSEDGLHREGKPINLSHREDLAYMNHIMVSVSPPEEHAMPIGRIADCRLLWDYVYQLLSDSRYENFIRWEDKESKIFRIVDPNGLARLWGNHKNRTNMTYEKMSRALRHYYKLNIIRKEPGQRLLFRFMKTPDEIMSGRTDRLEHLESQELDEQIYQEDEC

ETV7 = ETV7 (UniProt Q9Y603)
ETV6 = ETV6 (UniProt P41212)

Sequence | binding signal (ELF3) | binding signal (ETV7) | binding signal (ETV6)
TGCCAG | 0.689 | 0.758 | 0.673
CGTGTC | 0.69 | 0.803 | 0.747
AGTTAG | 0.842 | 0.901 | 0.832
CGAGGG | 0.598 | 0.769 | 0.696
TGTCGT | 0.796 | 0.947 | 0.847
CGGAGG | 0.291 | 0.296 | 0.266
GACGTC | 0.794 | 0.802 | 0.809
GTTAGG | 0.796 | 0.834 | 0.795
GGCTGG | 0.501 | 0.786 | 0.791
GACCCG | 0.753 | 0.844 | 0.861
AGGTTA | 0.871 | 0.823 | 0.802
GGTTGA | 0.726 | 0.719 | 0.756
GTGACA | 0.847 | 0.744 | 0.867
GAGGTC | 0.524 | 0.588 | 0.575
TCAGAG | 0.729 | 0.754 | 0.703
CCGGGG | 0.711 | 0.792 | 0.749
GCAGGG | 0.639 | 0.668 | 0.702
GCTCGG | 0.772 | 0.755 | 0.796
AGAGTA | 0.779 | 0.839 | 0.754
GTATAG | 0.995 | 0.976 | 0.922
GATTGT | 0.717 | 0.894 | 0.83

Sequence | binding signal (ELF3) | binding signal (ETV7) | binding signal (ETV6)
GTTGGA | 0.578 | 0.531 | 0.509
ATCGAG | 0.888 | 0.844 | 0.892
GGGCCA | 0.621 | 0.716 | 0.7
GACGAA | 0.866 | 0.906 | 0.813
GAGCCG | 0.422 | 0.454 | 0.387
GCATAG | 0.788 | 0.786 | 0.821
GACGCC | 0.829 | 0.898 | 0.842
GGCCAA | 0.728 | 0.837 | 0.743
GATCAG | 0.79 | 0.772 | 0.744
AGGCGA | 0.502 | 0.549 | 0.48
GGCGCG | 0.691 | 0.819 | 0.675
AGGTGA | 0.486 | 0.518 | 0.495
CGGGCA | 0.657 | 0.757 | 0.725
GGCGCT | 0.704 | 0.738 | 0.736
CCCAGG | 0.79 | 0.744 | 0.786
GGTGCT | 0.829 | 0.885 | 0.863
ATCGGT | 0.656 | 0.704 | 0.722
GCTGTC | 0.901 | 0.942 | 0.775
TGGGGA | 0.867 | 0.757 | 0.85
GGCCCA | 0.666 | 0.797 | 0.811
CGTGCC | 0.72 | 0.861 | 0.764

Reformatted as a markdown table: entries from further up

| Sequence | binding signal (ELF3) | binding signal (ETV7) | binding signal (ETV6) |
| --- | --- | --- | --- |
| GTTGGA | 0.578 | 0.531 | 0.509 |
| ATCGAG | 0.888 | 0.844 | 0.892 |
| GGGCCA | 0.621 | 0.716 | 0.7 |
| GACGAA | 0.866 | 0.906 | 0.813 |
| GAGCCG | 0.422 | 0.454 | 0.387 |
| GCATAG | 0.788 | 0.786 | 0.821 |
| GACGCC | 0.829 | 0.898 | 0.842 |
| GGCCAA | 0.728 | 0.837 | 0.743 |
| GATCAG | 0.79 | 0.772 | 0.744 |
| AGGCGA | 0.502 | 0.549 | 0.48 |
| GGCGCG | 0.691 | 0.819 | 0.675 |
| AGGTGA | 0.486 | 0.518 | 0.495 |
| CGGGCA | 0.657 | 0.757 | 0.725 |
| GGCGCT | 0.704 | 0.738 | 0.736 |
| CCCAGG | 0.79 | 0.744 | 0.786 |
| GGTGCT | 0.829 | 0.885 | 0.863 |
| ATCGGT | 0.656 | 0.704 | 0.722 |
| GCTGTC | 0.901 | 0.942 | 0.775 |
| TGGGGA | 0.867 | 0.757 | 0.85 |
| GGCCCA | 0.666 | 0.797 | 0.811 |
| CGTGCC | 0.72 | 0.861 | 0.764 |

The list goes on.

Sequence | binding signal (ELF3) | binding signal (ETV7) | binding signal (ETV6)
GAGACC | 0.183 | 0.198 | 0.185
CGGAGC | 0.399 | 0.488 | 0.384
GCATGT | 0.771 | 0.806 | 0.785
CCGTTG | 0.698 | 0.973 | 0.773
GGTTAG | 0.861 | 0.798 | 0.788
ATGTGA | 0.704 | 0.727 | 0.646
GGGGAG | 0.395 | 0.425 | 0.403
GAGCAG | 0.627 | 0.622 | 0.646
ATGGAG | 0.489 | 0.594 | 0.6
GTCAGA | 0.662 | 0.761 | 0.664
TCGGGG | 0.329 | 0.481 | 0.398
AGAACG | 0.462 | 0.441 | 0.483
AGGGGA | 0.646 | 0.59 | 0.637
TGCAGT | 0.869 | 0.818 | 0.804
GGCCGG | 0.673 | 0.601 | 0.587
CACGGT | 0.828 | 1 | 0.86
AGTCGA | 0.38 | 0.487 | 0.366
GGAACC | 0.811 | 0.831 | 0.816
GCGCAG | 0.746 | 0.878 | 0.859
ACCAGT | 0.462 | 0.535 | 0.441
GGGGCA | 0.628 | 0.722 | 0.673

Sequence | binding signal (ELF3) | binding signal (ETV7) | binding signal (ETV6)
ATGAGA | 0.876 | 0.826 | 0.886
GACTCA | 0.814 | 0.903 | 0.957
GGAGCA | 0.488 | 0.499 | 0.469
GGTGTC | 0.893 | 0.807 | 0.777
GAGAAC | 0.407 | 0.458 | 0.375
TAGTCG | 0.518 | 0.556 | 0.441
GTCGAT | 0.694 | 0.723 | 0.67
CTGAGA | 0.851 | 0.778 | 0.697
TGTGAG | 0.399 | 0.372 | 0.303
GTGGAC | 0.891 | 0.929 | 0.916
ACGGAC | 0.893 | 0.928 | 0.86
GTCTGT | 0.939 | 0.92 | 0.805
GACGGT | 0.384 | 0.502 | 0.491
GGAGAC | 0.142 | 0.181 | 0.14
GCGGGA | 0.338 | 0.443 | 0.406
GTCATC | 0.841 | 0.858 | 0.906
ACAACG | 0.787 | 0.942 | 0.953
GTGTGT | 0.517 | 0.57 | 0.493
CGGGAC | 0.483 | 0.564 | 0.547
CGGTCC | 0.843 | 0.939 | 0.907
GATCCG | 0.887 | 0.934 | 0.925

— publication PMC7862700
